Assay results published in the supplement of paper PMC4604168 (melanoma cell lines).
Some of the results follow. Many values rest on one well or one pass, so single values are uncertain.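 Cells were imaged in 1,536-well plates, and nuclei stained with an antibody against cleaved PARP were counted against all DNA-stained nuclei to give the apoptosis fraction. Screening doses were chosen to leave most cells alive, and resting and induced cleaved-PARP levels differ strongly between cell lines.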

Experiments:
Experiment in all cases: cleaved PARP positive nuclei fraction relative to DMSO control; melanoma cells; higher = more apoptosis
Details in all cases: library dose: low library concentration; 72 h
501Mel = tested on: 501Mel
A101D = tested on: A101D
A2058 = tested on: A2058
C32 = tested on: C32
CBRC008 = tested on: CBRC008 (line from a melanoma biopsy)
CBRC014 = tested on: CBRC014 (line from a melanoma biopsy)
CBRC016 = tested on: CBRC016 (line from a melanoma biopsy)
CBRC017 = tested on: CBRC017 (line from a melanoma biopsy)
COLO792 = tested on: COLO792
COLO800 = tested on: COLO800
COLO829 = tested on: COLO829
G361 = tested on: G361
IPC-298 = tested on: IPC-298
IST-MEL1 = tested on: IST-MEL1
LB2518-MEL = tested on: LB2518-MEL
LOXIMVI = tested on: LOXIMVI

SMILES | cleaved PARP positive nuclei fraction (501Mel) [%] | cleaved PARP positive nuclei fraction (A101D) [%] | cleaved PARP positive nuclei fraction (A2058) [%] | cleaved PARP positive nuclei fraction (C32) [%] | cleaved PARP positive nuclei fraction (CBRC008) [%] | cleaved PARP positive nuclei fraction (CBRC014) [%] | cleaved PARP positive nuclei fraction (CBRC016) [%] | cleaved PARP positive nuclei fraction (CBRC017) [%] | cleaved PARP positive nuclei fraction (COLO792) [%] | cleaved PARP positive nuclei fraction (COLO800) [%] | cleaved PARP positive nuclei fraction (COLO829) [%] | cleaved PARP positive nuclei fraction (G361) [%] | cleaved PARP positive nuclei fraction (IPC-298) [%] | cleaved PARP positive nuclei fraction (IST-MEL1) [%] | cleaved PARP positive nuclei fraction (LB2518-MEL) [%] | cleaved PARP positive nuclei fraction (LOXIMVI) [%]
CCCS(=O)(=O)Nc1ccc(F)c(C(=O)c2c[nH]c3ncc(Cl)cc23)c1F + CC(C)CCN1c2nc(Nc3cc(F)c(O)c(F)c3)ncc2N(C)C(=O)C1C [BID1870] (first compound 0.08 µM, partner dose 0.2 µM) | 65.8 | 73.4 | 70.6 | 120 | 41.8 | 237 | 63.4 | 101 | 67 | 23.2 | 130 | 196 | 102 | 122 | 41.1 | 29.9
Cc1cc(Nc2cc(N3CCN(C)CC3)nc(/C=C/c3ccccc3)n2)n[nH]1 + CCc1ccc(CCOc2ccc(CC3SC(=O)NC3=O)cc2)nc1 [pioglitazone] (first compound 0.04 µM, partner dose 2 µM) | 130 | 43 | 361 | 191 | 370 | 99.7 | 135 | 105 | 179 | 98.8 | 129 | 19 | 43.5 | 157 | 64.7 | 90.2
Cn1c(=O)n(-c2ccc(C(C)(C)C#N)cc2)c2c3cc(-c4cnc5ccccc5c4)ccc3ncc21 + CCCCCCCCCCCC1=C(O)C(=O)C=C(O)C1=O [Embelin] (first compound 0.004 µM, partner dose 1.2 µM) | 56.3 | 14.1 | 203 | 189 | 50.6 | 82 | 61.2 | 83.1 | 132 | 37.5 | 363 | 142 | 92.7 | 114 | 67.9 | 53.3
CS(=O)(=O)CCNCc1ccc(-c2ccc3ncnc(Nc4ccc(OCc5cccc(F)c5)c(Cl)c4)c3c2)o1 [lapatinib] + Oc1cc(-c2nc(-c3ccccc3)[nH]c2-c2ccncc2)ccc1Cl [L779450] (first compound 0.8 µM, partner dose 0.2 µM) | 49.2 | 13.1 | 58.3 | 103 | 163 | 99.9 | 61.5 | 107 | 109 | 109 | 89 | 56.2 | 42.3 | 81.2 | 81.5 | 82.5
CC(C)C[C@H](NC(=O)[C@H](Cc1ccccc1)NC(=O)c1cnccn1)B(O)O [Bortezomib] + N#Cc1c(O)c2c(-c3ccc(-c4ccccc4O)cc3)csc2[nH]c1=O [A769662] (first compound 0.001 µM, partner dose 2 µM) | 91.5 | 154 | 91.1 | 92.6 | 1340 | 194 | 135 | 445 | 73.8 | 46.9 | 267 | 1110 | 98.8 | 171 | 300 | 179
C[C@@H](Oc1cc(-c2cnn(C3CCNCC3)c2)cnc1N)c1c(Cl)ccc(F)c1Cl [Crizotinib] + CCN(CC)CCCCNc1ncc2cc(-c3cc(OC)cc(OC)c3)c(NC(=O)NC(C)(C)C)nc2n1 [PD173074] (first compound 0.2 µM, partner dose 0.1 µM) | 70.6 | 158 | 141 | 42.5 | 148 | 108 | 41 | 64.3 | 85.9 | 178 | 119 | 75.3 | 144 | 122 | 70.1 | 80.8
O=C(O)[C@@H]1[O][Sb](=[O])([O][Sb]2(=[O])[O][C@H]([C@H](O)CO)[C@H](O)[C@H](C(=O)O)[O]2)[O][C@H]([C@H](O)CO)[C@@H]1O (stereo partly drawn) [stibogluconate] + COc1ccc2c(c1)CCC1C2CCC2(C)C(NCCCCCCN3C(=O)C=CC3=O)CCC12 [U73122] (first compound 2 µM, partner dose 0.4 µM) | 72 | 19.2 | 113 | 93.6 | 50.9 | 102 | 60.4 | 176 | 93.6 | 23.8 | 44.8 | 158 | 48.7 | 96.5 | 72.1 | 77.4
Cn1c(=O)n(-c2ccc(C(C)(C)C#N)cc2)c2c3cc(-c4cnc5ccccc5c4)ccc3ncc21 + COc1ccc2c(c1)CCC1C2CCC2(C)C(NCCCCCCN3C(=O)C=CC3=O)CCC12 [U73122] (first compound 0.004 µM, partner dose 0.4 µM) | 68.8 | 39.7 | 82.9 | 128 | 146 | 213 | 67.6 | 252 | 50.8 | 109 | 147 | 15.1 | 73.1 | 60.3 | 69.4 | 87.1
